From article PMC3701000
These are yes or no findings as the source states them, for the method shown. In cells and extracts the contact can be indirect. Some entries that bind do so weakly or less than the wild type.

The chains behind the UniProt entries cited, without tags or fusion partners.
UniProt Q96MX6: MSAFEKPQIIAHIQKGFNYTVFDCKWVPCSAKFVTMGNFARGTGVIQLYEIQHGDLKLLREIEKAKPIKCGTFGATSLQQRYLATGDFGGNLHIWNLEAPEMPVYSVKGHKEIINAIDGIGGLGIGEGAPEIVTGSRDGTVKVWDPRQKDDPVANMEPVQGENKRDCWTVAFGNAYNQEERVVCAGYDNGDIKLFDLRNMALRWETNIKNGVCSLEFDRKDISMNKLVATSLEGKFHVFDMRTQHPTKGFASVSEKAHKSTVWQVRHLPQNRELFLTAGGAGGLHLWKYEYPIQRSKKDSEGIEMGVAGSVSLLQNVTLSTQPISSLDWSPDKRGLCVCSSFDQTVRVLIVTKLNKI
UniProt Q96B26: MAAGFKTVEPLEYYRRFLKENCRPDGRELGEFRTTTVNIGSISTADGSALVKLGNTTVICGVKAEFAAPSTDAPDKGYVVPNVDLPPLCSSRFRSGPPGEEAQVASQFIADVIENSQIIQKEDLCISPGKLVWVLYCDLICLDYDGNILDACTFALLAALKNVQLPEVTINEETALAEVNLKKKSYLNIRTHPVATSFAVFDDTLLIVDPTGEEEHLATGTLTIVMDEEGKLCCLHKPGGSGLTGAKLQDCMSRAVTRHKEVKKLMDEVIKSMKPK

Columns and labels:
[1] = molecular target: WD repeat protein 92 (WDR92), also known as Monad (human (endogenous in MDA-MB-231)) (UniProt Q96MX6); assay: co-IP; Monad-OIP2 interaction in MDA-MB-231 cells with RNase treatment; data not shown
[2] = molecular target: WD repeat protein 92 (WDR92), also known as Monad (human (endogenous in MDA-MB-231)) (UniProt Q96MX6); assay: co-IP; MDA-MB-231 lysate (1% Triton X-100, 120 mM NaCl, 5 mM EDTA, 10% glycerol, 20 mM Tris pH 7.4) immunoprecipitated with anti-Monad antibody or control IgG, Protein G Sepharose; immunoblot with anti-OIP2

- binding [1]: binds
- binding [2]: binds
Substance: OIP2 (exosome component; human homologue of yeast Rrp43) (from UniProt Q96B26 1-276)
